# Hit rate of the full screen: of about 1,600 compounds, about 20 (1%) showed an effect of 50% or more. Some of the results follow.
# Test system: T1, E. coli pLC1021 (luc-trpAt trans-translation reporter)
# T1 construct: pLC1021 luc-trpAt reporter strain
# Parameters: species or system Escherichia coli pLC1021; luc-trpAt non-stop luciferase reporter; luminescence rises when trans-translation is inhibited; normalized to KKL-35 and DMSO
# Conditions: reporter signal, KKL-35 = 100%; rise means trans-translation inhibition; 2 h, 20 µM
# Summary of the method: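 Cells carrying the non-stop luc-trpAt reporter were exposed to 20 µM compound for 2 h at room temperature, then Bright-Glo was added and luminescence read at 560 nm after 10 min. Signals were normalised per plate to DMSO and 20 µM KKL-35 wells. Hits: activity one SD above the median; ≥2 biological repeats averaged.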
row,Structure (SMILES),% activation
1,COc1ccc(OCC(O)Cn2c(=N)n(CCN3CCCCC3)c3ccccc32)cc1 (stereo not shown) [KKL-1200],4%
2,Cc1ccc(NC(=O)c2cc3cc(Cl)cc(Cl)c3oc2=O)c(C)c1 [KKL-1505],7%
3,c1ccc(N2CCN(c3nc(-c4ccccn4)nc4ccccc34)CC2)cc1 [KKL-0375],0%
4,Cc1cc2ncn(Cc3ccc(C(C)C)cc3)c2cc1C [KKL-1584],0%
5,Cc1ccc(-n2cc(CN(C)Cc3nccs3)c(-c3cccc(C)c3)n2)cc1 [KKL-0522],8%
6,O=C(Nc1nnc(C2CCCCC2)s1)c1sc2ccccc2c1Cl [KKL-1507],1%
7,COC(=O)CCCC(=O)N1CCC(C(=O)Nc2ccc(-c3nc4ccccc4o3)cc2)CC1 [KKL-1160],0%
8,OC(COc1ccccc1Cl)CN1CCN(C(c2ccccc2)c2ccccc2)CC1 (stereo not shown) [KKL-0920],0%
9,N#Cc1cc(C(F)(F)F)c2nc(C(=O)NCc3cccs3)c(Cl)n2c1 [KKL-1827],1%
10,CCSc1nnc(NC(=O)c2ccccn2)s1 [KKL-0948],0%
11,COc1ccc(-c2cc(NC(=O)c3cnc(SC)nc3)n(C)n2)cc1 [KKL-0687],0%
12,COc1ccccc1CN1CCCCC1C(=O)Nc1ccc(-n2cccn2)cc1 (stereo not shown) [KKL-0494],3%
13,CCOC(=O)COc1ccc(S(=O)(=O)N2CCC(C)CC2)cc1 [KKL-1457],0%
14,COc1ccc2nc(C)cc(OCC(=O)Nc3ccccc3OC)c2c1 [KKL-1843],3%
15,Cc1ccc(OCCN2CCN(c3nc(NCc4ccccc4)c4ccccc4n3)CC2)cc1 [KKL-1415],0%
16,COc1ccc(-c2cc(NC(=O)c3ccc(F)cc3Cl)ccc2OC)cc1 [KKL-1837],0%
17,CC(=O)n1cc(N(C(=O)CCl)c2ccccc2)c2ccccc21 [KKL-0370],0%
18,CCOc1ccc(NCCC(=O)c2cccs2)cc1 [KKL-1384],0%
19,CN(C)C(S)=Nc1nc2ccccc2s1 [KKL-0288],2%
20,Oc1cccc2ccc(/C=C/c3cccs3)nc12 [KKL-1069],45%
21,CCOC(=O)COc1ccc2c(=O)c(-c3ccccc3OC)coc2c1 [KKL-1077],1%
22,O=[N+]([O-])c1ccc(-c2[nH]c(-c3cccc(F)c3)nc2-c2ccccc2)cc1 [KKL-0750],0%
23,O=C(N[C@@H]1CN(C(=O)Nc2ccc(OC(F)(F)F)cc2)CCC[C@H]1O)c1ccc(OCCN2CCCC2)cc1 [KKL-0336],0%
24,CCN(CC)C(=S)NC(=O)c1ccc(Cl)cc1 [KKL-1447],20%
25,Cc1ccc(C(=O)NCCC2=CCCCC2)cc1Br [KKL-1393],0%
26,CCC(Sc1nc2ccccc2o1)C(=O)Nc1nccs1 (stereo not shown) [KKL-1824],3%
27,CCCn1nc(C)c(-c2cc(C(=O)Nc3ccc(CN4CCCCCC4)cc3)[nH]n2)c1C [KKL-0334],0%
28,Cc1nc2ccccn2c1C(=O)NCc1ccc2c(c1)OCO2 [KKL-1647],1%

# Part of the list above, tab-delimited.
row	Structure (SMILES)	% activation
21	CCOC(=O)COc1ccc2c(=O)c(-c3ccccc3OC)coc2c1 [KKL-1077]	1%
22	O=[N+]([O-])c1ccc(-c2[nH]c(-c3cccc(F)c3)nc2-c2ccccc2)cc1 [KKL-0750]	0%

# Following part

row,Structure (SMILES),% activation
1,NCC(c1cccs1)S(=O)(=O)c1ccccc1 (stereo not shown) [KKL-1721],0%
2,O=C(Nc1ccco1)N1CCN(Cc2cccs2)CC1 [KKL-1841],1%
3,COC(=O)CN1C(c2ccc(OC)cc2)=Nc2ccc(Cl)cc2C1c1ccccc1 (stereo not shown) [KKL-0850],0%
4,CCOC(=O)N1CCN(C(=O)CSc2nnc(-c3cc(OC)cc(OC)c3)o2)CC1 [KKL-1123],0%
5,CCn1cc(C(=O)NCc2cccc(F)c2)c(=O)c2cc(F)c(N3CCN(C(=O)c4ccco4)CC3)cc21 [KKL-0876],8%
6,CC(C)(C)NC(=O)c1cc2cc([N+](=O)[O-])ccc2oc1=O [KKL-1320],0%
7,CN1CCN(c2ccc(NC(=S)NC(=O)c3ccc(-c4cccc(Cl)c4)o3)cc2)CC1 [KKL-0357],18%
8,Cc1ccc(NC(=O)N2CCC(c3nc(O)c4nnn(Cc5cccc(Cl)c5)c4n3)CC2)cc1 [KKL-1618],0%
9,CCn1cc(C(=O)O)c(=O)c2cc(F)c(N3CCN(C(S)=Nc4cc(C(F)(F)F)ccc4Cl)CC3)cc21 [KKL-1476],5%
10,O=C(/C=C/c1ccc(Cl)cc1Cl)c1cccnc1 [KKL-0383],0%
11,c1cn(CCCNc2nncc(-c3ccc(C4CCCCC4)cc3)n2)cn1 [KKL-1171],8%
12,Cc1ccc2occ(CN(CCCn3ccnc3)Cc3ccccc3Cl)c(=O)c2c1 [KKL-1038],1%
13,Cc1cc(OCCCn2ccnc2)ccc1Cl [KKL-1063],5%
14,Cc1ccc(S/C=C\C(=O)c2ccccc2)cc1 [KKL-0963],0%
15,Cc1ccc2cc(C(c3nnnn3C(C)(C)C)N3CCN(c4cccc(C)c4C)CC3)c(O)nc2c1 (stereo not shown) [KKL-0698],0%
16,CC(=O)O[C@H]1CC2C(COC(=O)CC(C)C)=CO[C@@H](OC(=O)CC(C)C)C2[C@@]12CO2 (stereo partly shown) [KKL-0301],1%
17,CCCC(=O)N1c2ccc(C(O)CN3CCc4[nH]c5c(C)cccc5c4C3)cc2CC1C (stereo not shown) [KKL-1196],0%
18,Oc1ccc(Br)cc1-c1nc(-c2cccs2)c(-c2cccs2)[nH]1 [KKL-1281],6%
19,CCOC(=O)C1=C(C)N(c2ccc(Br)cc2)C(=O)C1 [KKL-0854],0%
20,O=C(CCNc1cccc(Cl)c1)c1ccco1 [KKL-1395],0%
21,Cc1ccc(-n2cc(CNCCn3nc(C)cc3C)c(-c3ccc(F)cc3)n2)cc1 [KKL-1132],2%
22,O=C(Oc1ccc(Cl)cc1)c1ccc(N2CCOCC2)c([N+](=O)[O-])c1 [KKL-0943],0%
23,CCn1c(CN2CCC3(CC2)Nc2cc(OC)ccc2-n2cccc23)nc2ccccc21 [KKL-1235],6%
24,CC12CCC(C(=O)Oc3cccc4cccnc34)(CC1=O)C2(C)C (stereo not shown) [KKL-1043],6%
25,O=C(Nc1ncnc2sc3c(c12)CCCC3)c1ccc(F)cc1 [KKL-1368],0%
26,Cc1c(C(=O)Oc2cccc3cccnc23)cccc1[N+](=O)[O-] [KKL-0952],8%
27,CN(Cc1ccccc1)C(=S)NC(=O)c1cccs1 [KKL-1440],17%

# Source: publication PMC12548414
